This experiment can be described thus: qHTS Assay for Modulators of Lamin A Splicing. The conditions noted are these: HeLa LMNA splicing GFP/RFP minigene ratio, 48 h. A digest of the protocol:
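S3 HeLa cells stably expressing lamin A-EGFP splicing minigene plus DsRed2, 600 cells/well, 48 h compound exposure at 37C. Laser-scanning cytometry; analysed as GFP (500-530 nm)/RFP (575-640 nm) total intensity ratio; 0.5% DMSO vehicle.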

[1] abbreviates: measured here: RFP viability control channel.
[2] abbreviates: measured here: GFP splicing reporter channel.

This note sets out measurements from PubChem BioAssay AID1487 (National Center for Advancing Translational Sciences (NCATS), 2009).

Values joined by “and” are separate entries in the source; they are usually repeats but may differ in a detail not shown here. Equal values may be shown once. The list shows a part of the results. These are further read-outs of the screen, such as a control signal, another cell line or another target. No call is given for them. The list favours compounds with an active or inconclusive main result. The note in brackets gives the kind of curve behind each potency; many fits are weak.

`O=C(Nn1c(SCc2cccc([N+](=O)[O-])c2)nc2ccccc2c1=O)c1ccccc1`: the AC50 under setting [1] was 28.2 µM [rising, single point]. As to `COc1ccccc1-c1nc(NCCc2cnc[nH]2)c2ccccc2n1`, the AC50 under setting [2] was 12.6 µM [falling, partial curve]. As for `O=C(C(Cc1ccccc1)n1cccc1)N1CCN(c2cccc(Cl)c2)CC1` (stereo unspecified), the AC50 under setting [1] was 35.5 µM [rising, single point]. With `O=C(c1cccc(S(=O)(=O)Nc2ccccc2Cl)c1)N1CCN(C(=O)c2ccco2)CC1`, under setting [1], the AC50 was 4.47 µM [falling, partial curve]. Turning to `CCCOc1ccc(C2=NNC(c3cccs3)=Nc3ccc(OC)cc32)cc1`, the AC50 under setting [2] is 20 µM [rising, single point] and the concentration at half-maximal activity (AC50) under setting [1] was 22.4 µM [rising, partial curve]. Turning to `Cc1ccc(NC2=C/C(=N\S(=O)(=O)c3cccs3)c3ccccc3C2=O)c(C)c1`, the AC50 under setting [2] was 4.47 µM [falling, full curve] and the AC50 under setting [1] was 3.98 µM [falling, full curve]. On to `O=C(Nc1ccc2c(c1)OCCO2)NC12CC3CC(CC(C3)C1)C2`, for which the AC50 is, setting by setting: under setting [2], 35.5 µM [rising, single point]; under setting [1], 35.5 µM [rising, single point]. For the compound `c1ccc(SCc2nc3ccccc3[nH]2)nc1`, the AC50 runs as follows: under setting [2], 10 µM [rising, partial curve, poor fit]; under setting [1], 11.2 µM [rising, partial curve]. `O=c1cc(-c2ccc(O)cc2)oc2cc(O)cc(O)c12`: the AC50 is 14.1 µM [falling, single point] and 12.6 µM [falling, partial curve] under setting [2]; 12.6 µM [falling, single point] and 11.2 µM [falling, partial curve] under setting [1].

`COc1cccc(CNn2c(-c3cccc(C)c3)nc3ccccc3c2=O)c1O`: the AC50 under setting [1] is 11.2 µM [rising, single point].

As for `CN(C)S(=O)(=O)c1cccc(NC(=O)COc2nc3ccccc3nc2N2CCOCC2)c1`, under setting [1], the AC50 was 35.5 µM [rising, single point]. For the compound `COc1cc(Cl)nn(-c2ccccc2)c1=O`, the AC50 is, setting by setting: under setting [2], 22.4 µM [falling, partial curve]; under setting [1], 11.2 µM [falling, partial curve, poor fit]. Consider `COc1cccc(-n2ccnc2SCC(=O)Nc2c(C)cc(C)cc2C)c1`, for which the AC50 is 12.6 µM [falling, partial curve, poor fit] under setting [2] and 0.178 µM [falling, full curve, poor fit] under setting [1]. Consider `Cc1cc(C)c(NC(=O)Cn2c(=O)c3cccn3c3ccccc32)c(C)c1`, for which the AC50 under setting [1] was 11.2 µM [rising, partial curve].

In general, AC50 refers to the concentration at which the activity in the assay is half-maximal.
